Reference: publication PMC8363623
These are yes or no findings as the source states them, for the method shown. Binding seen in cells or lysates may run through a third protein. Some results given as binding are weak or reduced against the parent protein; the word gives no strength.

By UniProt entry, the sequences of proteins in these tests, tags left out.
UniProt P06700: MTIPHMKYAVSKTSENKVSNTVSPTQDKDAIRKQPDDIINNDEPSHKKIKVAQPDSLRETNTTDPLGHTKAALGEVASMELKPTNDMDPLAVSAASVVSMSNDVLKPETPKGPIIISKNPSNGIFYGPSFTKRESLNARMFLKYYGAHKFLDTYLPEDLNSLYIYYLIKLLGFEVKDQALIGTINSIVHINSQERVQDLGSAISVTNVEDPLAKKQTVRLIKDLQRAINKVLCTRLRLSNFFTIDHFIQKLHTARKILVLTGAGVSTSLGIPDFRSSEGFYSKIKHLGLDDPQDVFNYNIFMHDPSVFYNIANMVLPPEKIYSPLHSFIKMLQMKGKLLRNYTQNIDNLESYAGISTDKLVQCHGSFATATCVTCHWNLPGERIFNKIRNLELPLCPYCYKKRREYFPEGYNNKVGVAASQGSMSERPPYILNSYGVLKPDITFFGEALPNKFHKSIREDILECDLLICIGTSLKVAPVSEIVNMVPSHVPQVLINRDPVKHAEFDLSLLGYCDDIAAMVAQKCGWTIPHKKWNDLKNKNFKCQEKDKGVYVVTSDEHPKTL

Columns and labels:
[1] = biological target: T1, Heh1 (as in the co-immunoprecipitations of the supplementary figures) (S. cerevisiae) (UniProt Q03707); test: co-IP; yeast cell lysates (50 mM Tris pH 7.5, 150 mM NaCl, 10% glycerol, 1 mM EDTA, 0.5% NP-40) on antiHA-sepharose, GFP-Trap or IgG-agarose beads, 1.5 h at 4 °C, immunoblot; cells also with cdc14-3 at 37 °C, phosphatase inhibitors, Net1 depletion, nur1Pmim, SUMO overexpression (WT, FAIA, KRall), Cdc48 mutants, STUbL deletions or I-PpoI rDNA damage
T1 sequence: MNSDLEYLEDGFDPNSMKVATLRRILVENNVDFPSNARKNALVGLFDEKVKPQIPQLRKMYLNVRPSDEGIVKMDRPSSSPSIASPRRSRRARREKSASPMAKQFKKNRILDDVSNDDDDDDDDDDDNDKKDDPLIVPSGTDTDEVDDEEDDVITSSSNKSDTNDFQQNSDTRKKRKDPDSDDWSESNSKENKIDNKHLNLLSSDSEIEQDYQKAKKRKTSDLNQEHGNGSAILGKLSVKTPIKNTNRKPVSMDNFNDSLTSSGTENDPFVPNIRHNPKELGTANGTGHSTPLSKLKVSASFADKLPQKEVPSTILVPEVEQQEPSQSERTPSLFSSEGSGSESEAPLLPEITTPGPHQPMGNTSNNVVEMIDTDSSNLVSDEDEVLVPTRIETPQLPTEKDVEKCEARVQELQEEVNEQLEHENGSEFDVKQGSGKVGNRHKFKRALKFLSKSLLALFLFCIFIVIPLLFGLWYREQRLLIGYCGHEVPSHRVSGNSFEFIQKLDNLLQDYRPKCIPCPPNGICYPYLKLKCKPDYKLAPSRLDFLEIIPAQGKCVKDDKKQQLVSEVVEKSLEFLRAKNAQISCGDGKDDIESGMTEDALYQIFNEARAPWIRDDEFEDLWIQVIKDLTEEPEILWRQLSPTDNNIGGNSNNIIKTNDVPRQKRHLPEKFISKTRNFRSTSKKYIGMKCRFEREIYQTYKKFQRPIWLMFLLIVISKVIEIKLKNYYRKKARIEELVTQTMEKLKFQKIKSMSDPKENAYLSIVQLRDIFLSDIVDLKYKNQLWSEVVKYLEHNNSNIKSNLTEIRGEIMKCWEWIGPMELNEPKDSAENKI

Sir2 (S. cerevisiae) = Sir2 (S. cerevisiae) (UniProt P06700); test: as above

B1: Nur1 (as in the co-immunoprecipitations of the supplementary figures) (protein, UniProt Q12066 1-484)
chain: MGSNDLINEAYDDSEVVGEERESKSAWMKRWYQLLTSPLDLQLVINEKLEMINWDAYAKSLAKPLGNFLTILFFIIRLLQDNLIKPNYYKLNVKSGAFDLSKSNKLKEFDYLWEISSSFQNNNQFYAFQSWYFVTLRFLNNLFRFTIFILLSLNLYVSCKFMFGYFKTYNLFHLKKEFNSPNLTKHNLKDLSKEYYEDIYKQSLWSMLKHFFRGSRDDGPHVNQNEDEIFFQLRKWIPTNFMINLFVSFSPTAIVFLSFSDVSFTSAIAIVFHQYILDYIITKRFQRSVDDDLILSSAALQEYEDKHIMARINQCSNIDTLSSAMGTRSKTPRIFTTHSLCGEEIREVYNYEKREFEALPKMTESVPGSRETRIKDYGGISQVSDHQSHPIGFHYSPRMSPYYRDKVLDNNLAQSSSNENLEKGGAYLPNQDQNRPSKSLSPLRKTPLSARQKRFEGSEFNVLNKNDINSILRSPKKKKNYHKR
binding [1]: binds | binding (Sir2 (S. cerevisiae)): binds
